According to PubChem BioAssay AID493014 (National Center for Advancing Translational Sciences (NCATS), 2011):
The list shows a part of the results. Further columns of the screen follow, without active or inactive calls. The list favours compounds with an active or inconclusive main result. The note in brackets gives the kind of curve behind each potency; many fits are weak.

Assay: qHTS Assay to Find Inhibitors of Chronic Active B-Cell Receptor Signaling
Conditions: ABC-DLBCL IkBa-CBG/CBR reporter, luminescence ratio (green luciferase fused to IkBa over red control in TMD8 lymphoma cells), 4 h
Procedure, shortened: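 Compounds up to 46 uM were incubated four hours with TMD8 cells whose green CBG68 luciferase is fused to IkappaBalpha; red CBR luminescence normalised the signal, and concentration-effect curves were fitted to fusion, red and ratio data.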

[1] = measured here: CBR red luminescence, cell number
[2] = measured here: IkBa-CBG green luminescence

Structure (SMILES)	AC50 [1]	AC50 [2]
O=S(=O)(/N=C(/NC(=S)Nc1ccccc1)c1ccccc1)c1ccc(Cl)cc1	3.98 µM [rising, partial curve]	–
COc1ccc(N2CCc3c(C)nc4c(OC)cc(OC)cc4c32)cc1	8.91 µM [falling, partial curve, poor fit]	–
Cc1ccc(Cl)cc1N1CCN(C(=O)CCCCCn2c(=O)[nH]c3ccccc3c2=O)CC1	35.5 µM [falling, single point]	–
NNC(=O)c1ccc(COc2ccc3c(c2)CCC3)o1	11.6 µM [falling, partial curve]	–
C/C(=N\NC(=O)c1ccccc1O)c1c(O)cc(C)oc1=O	2 µM [falling, full curve, poor fit]	–
O=C(C(=O)N1CCCCCC1)c1c[nH]c2ccccc12	0.891 µM [falling, full curve, poor fit]	–
C=CCN1N=C(/C=C/c2ccccc2)CCC1=O	11.2 µM [rising, partial curve]	–
CNC(=O)c1sc(-c2cccnc2)nc1C	35.5 µM [falling, single point]	–
Fc1ccc(-c2nnc(SCc3cccnc3)o2)cc1	35.5 µM [falling, single point]	–
CC(C)n1c(CCCO)nc2ccccc21	35.5 µM [rising, single point]	–
O=C(O)C1Nc2c(C(F)(F)F)ccc(Cl)c2C2C=CCC12 (configuration not stated)	11.2 µM [rising, partial curve, poor fit]	–
CC(NC(=O)C1CCC(CNc2c(N3CCOCC3)c(=O)c2=O)CC1)c1ccccc1 (configuration not stated)	25.9 µM [rising, partial curve, poor fit]	–
Cc1nn(C)c(C)c1S(=O)(=O)N(CC(=O)N1CCc2ccccc21)c1ccc(C(C)C)cc1	6.51 µM [rising, single point]	–
CC(C)c1ccccc1OCC(O)CN(CC(O)COc1cccc2ccccc12)C(C)C (configuration not stated)	35.5 µM [falling, single point]	–
COc1ccccc1C(=O)Nc1ccc(S(=O)(=O)N2CCCCC2c2cccnc2)cc1 (configuration not stated)	7.08 µM [falling, partial curve]	–
CCN(CC)c1ccc(S(=O)(=O)N2CCOCC2)cc1NC(=O)CN1CCc2ccccc2C1	15.8 µM [falling, single point]	–
COc1ccc(C(=O)/C=C/Nc2ccc(C)cn2)cc1OC	16.4 µM [falling, single point]	–
CC(=O)NCC(=O)OCc1ccc([N+](=O)[O-])cc1	5.8 µM [rising, full curve, poor fit]	–
COc1cc2nc(NC(=O)c3ccco3)sc(=O)c2cc1OC	3.55 µM [falling, partial curve, poor fit]	–
C/C(CC(=O)NC(C)(C)C)=N\NC(=O)c1ccccc1N	11.2 µM [falling, partial curve]	–
CC(C)(C)C(=O)N1CCC[C@H]1C(O)(c1ccccc1)c1ccccc1	29.1 µM [falling, single point]	–
CC1Cc2ccccc2N1S(=O)(=O)c1cnc(Cl)c(Cl)c1 (configuration not stated)	3.98 µM [falling, single point]	–

Given comma-delimited: entries from further up
Structure (SMILES),AC50 [1],AC50 [2]
O=S(=O)(/N=C(/NC(=S)Nc1ccccc1)c1ccccc1)c1ccc(Cl)cc1,"3.98 µM [rising, partial curve]",–
C/C(=N\NC(=O)c1ccccc1O)c1c(O)cc(C)oc1=O,"2 µM [falling, full curve, poor fit]",–
CC(C)c1ccccc1OCC(O)CN(CC(O)COc1cccc2ccccc12)C(C)C (configuration not stated),"35.5 µM [falling, single point]",–
COc1ccc(C(=O)/C=C/Nc2ccc(C)cn2)cc1OC,"16.4 µM [falling, single point]",–

Going on with the list.

Structure (SMILES)	AC50 [1]	AC50 [2]
COc1cc(CNC(=O)OCC(C)C)cc(OC)c1OC	10 µM [rising, partial curve]	–
O=C(c1ccc(Cl)cc1)C1CCCN(C(=O)/C=C/c2ccccn2)C1 (configuration not stated)	6.31 µM [rising, single point]	–
O=C(CN1C(=O)S/C(=C\c2ccccc2)C1=O)Nc1cc([N+](=O)[O-])ccc1O	31.6 µM [falling, single point]	–
c1c2c(cc3sc(N4CCCCC4)nc13)OCO2	11.2 µM [falling, single point]	–
Cc1ccc2nc(NC(=O)CN3C(=O)NC4(CCCC4)C3=O)sc2c1	8.2 µM [falling, partial curve]	–
COCCNC(=O)Cn1nc(Cc2ccncc2)c2ccccc2c1=O	35.5 µM [rising, single point]	–
CC(C)OCCCNc1nc2c([nH]1)c(=O)n(C)c(=O)n2C	17.8 µM [falling, single point]	–
CC(C)(C)Cc1nnc(NC(=O)c2ccco2)s1	12.6 µM [falling, single point]	–
COc1ccc(-c2[nH]ncc2-c2cnn(-c3ccccc3)c2)c(O)c1	2 µM [rising, full curve, poor fit]	–
Cc1ccccc1OCC(=O)N(CC(C)C)c1c(N)n(CC(C)C)c(=O)[nH]c1=O	0.112 µM [rising, full curve, poor fit]	–
O=C(COC(=O)c1cc(S(=O)(=O)N2CCOCC2)ccc1Cl)Nc1ccccc1Cl	29.1 µM [falling, single point]	–
O=C(O)/C=C/C(=O)Nc1ccc(SC(F)(F)C(F)(F)C(F)(F)F)cc1	0.112 µM [rising, full curve, poor fit]	–
CNCCCOc1ccc2c(c1)CCC2	8.91 µM [falling, partial curve]	–
O=C(/C=C\c1cn(-c2ccccc2)nc1-c1ccccc1)Nc1nccs1	1.3 µM [falling, full curve]	0.731 µM [rising, full curve, poor fit]
O=C(Nc1ccccc1C(=O)O)c1cc(S(=O)(=O)N2CCCCC2)cs1	1.12 µM [rising, full curve, poor fit]	–
c1cnn(-c2nc(N3CCOCC3)nc(N3CCOCC3)n2)c1	12.6 µM [falling, single point]	–
O=C(CSc1ccccc1)Nc1cccc(NC(=O)c2ccco2)c1	10 µM [falling, partial curve, poor fit]	–
CC(=O)N1c2ccc(Cl)cc2C2C=CCC2C1c1cccc2ccccc12 (configuration not stated)	18.4 µM [falling, single point]	–
O=C(CN1C(=O)CCC1=O)c1ccc(-c2ccccc2)cc1	5.8 µM [rising, single point]	–
COC(=O)c1ccc(CSc2nc3ccccc3c(=O)n2-c2cccc(OC)c2)o1	7.94 µM [rising, partial curve, poor fit]	–
C=CCC[C@@H](Cc1ccc(F)cc1)C(=O)O[C@H](CNC(=O)[C@H](CC=C)CC(=O)N(CCO)Cc1ccccc1)c1ccccc1	8.2 µM [falling, partial curve]	10.3 µM [rising, partial curve, poor fit]
CCC(C)c1ccc(C(C)NC(=S)NCc2ccc(F)cc2)cc1 (configuration not stated)	11.2 µM [falling, partial curve]	–

Structure (SMILES)	AC50 [1]	AC50 [2]
COC(=O)C1(CCSC)NC(c2ccc(OC)cc2OC)C2C(=O)N(c3cccc(C(C)=O)c3)C(=O)C21 (configuration not stated)	6.31 µM [rising, full curve, poor fit]	–
COc1ccc(C)cc1-n1nnnc1SCC(=O)c1cc(C)n(Cc2ccco2)c1C	15.8 µM [rising, partial curve, poor fit]	–
CCS(=O)(=O)Nc1cc(-c2nc3cccnc3s2)ccc1C	1.64 µM [rising, partial curve, poor fit]	–
CCN(CC)c1cc(C)c2cc(NC(=O)c3ccc(Br)o3)ccc2n1	7.08 µM [falling, partial curve, poor fit]	–
N#CC(Cc1cc2ccccc2n1S(=O)(=O)c1ccccc1)OCc1ccccc1 (configuration not stated)	6.51 µM [falling, partial curve]	–
COc1ccc(NC(=O)Cc2ccsc2)cc1S(=O)(=O)N1CCCCC1	0.82 µM [rising, full curve, poor fit]	–
COc1cccc2sc3cc(C#Cc4ccccn4)ccc3c(=O)c12	3.66 µM [falling, partial curve, poor fit]	–
CC(C)(C)c1ccccc1OCCCCCNCCO	29.1 µM [falling, single point]	–
CCOC(=O)C1CCN(c2nc3ccccc3nc2C(C#N)C(=O)OC(C)COC)CC1 (configuration not stated)	0.0517 µM [rising, full curve, poor fit]	–
CC(=O)c1c(C)[nH]c(C(=O)N2CCN(S(=O)(=O)c3ccc(C)cc3C)CC2)c1C	20.6 µM [rising, single point]	–
CCN1C=C(Cc2ccc(F)cc2)C2=C(C1)C(c1ccc(F)cc1)C(C#N)=C(N)O2 (configuration not stated)	29.1 µM [falling, single point]	–
N#Cc1cc2c([nH]c1=S)CCCCCC2	3.55 µM [falling, partial curve, poor fit]	–
Cc1c(/C=N/NC(=O)c2ccc(O)cc2)c2ccccn2c1C(=O)c1ccc(F)cc1	14.6 µM [falling, partial curve]	–
COc1cccc(C(=O)N2CCN(C(=O)c3ccc(-c4ccccc4)cc3)CC2)c1OC	11.2 µM [falling, single point]	–
COc1cccc(CN2CCN(C(=O)c3oc4c(F)cccc4c3C)CC2=O)c1	2.24 µM [rising, partial curve, poor fit]	–
O=C(CCS(=O)(=O)c1ccc(Cl)cc1)N1CCN(S(=O)(=O)c2cccs2)CC1	1.46 µM [rising, full curve, poor fit]	–
COc1ccc(/C=C/c2nc3ccccc3c(=O)n2-c2cccc(C(F)(F)F)c2)cc1	35.5 µM [rising, single point]	–
Cc1cc(Br)ccc1OCC(=O)NC1CCCC1	0.501 µM [rising, full curve]	–
O=C(N/N=C/c1ccc[nH]1)c1ccc2c(c1)OCO2	6.31 µM [falling, partial curve]	–
CCOc1ccc(-n2nnnc2SCC(=O)NC2CCCC2)cc1	31.6 µM [rising, single point]	25.1 µM [falling, partial curve, poor fit]
